{"source": "paper PMC6446049", "about": "(Alzheimer's & Dementia : Translational Research & Clinical …, 2019)", "assay": "Plasma pharmacokinetics", "conditions": "human, in vivo, iv, 0.3 mg"}
{"smiles": "CN1[C@@H]2C[C@@H](OC(=O)[C@H](CO)c3ccccc3)C[C@H]1[C@@H]1O[C@@H]12", "note": "[scopolamine]", "values": [{"measurement": "AUC(0-inf)", "value": 3.43, "unit": "ng·h/mL"}]}
